Data source: PubChem BioAssay AID1159578 (Peter MacCallum Cancer Centre, 2015)
The whole screen tested about 18,000 reagents; this is a part drawn at random. About 1,030 of them (5.7%) count as active. 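Inactive calls also include pools with fewer than 3300 nuclei, whose migration was not assessed.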 Raw values are not corrected between plates. Unmarked entries are inactive. Further read-outs or replicates are left out here. No sequences are given here.

- Aim: 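Genome-wide hunt for genes controlling movement of lymphatic endothelial cells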 (primary screen)
- System: human lymphatic endothelial cells
- Knock-down reagent: siRNA pool against human genes, 40 nM
- Time to read-out: 48 h after transfection
- Read-out: 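Cells stained with dye and imaged after a scratch; covered wound area and nuclei counted, duplicates averaged, migration set against mock wells and turned into a robust z-score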
- Scale: migration robust z-score: higher = faster migration into the scratch; nuclei per well: higher = more cells in the well
- Call rule: 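Migration changed when robust z exceeds 2 or falls below -2 and mean nuclei number is at least 3300; otherwise not called changed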
- Meaning of the calls: active = migration changed; inactive = no migration change, or too few cells

The first 2 records, to show the layout:
gene,migration robust z-score,"nuclei per well, duplicate mean"
MRTFA,0.11,7039
RASSF4,0.82,4142

The listing, repeating the preview:
gene,migration robust z-score,"nuclei per well, duplicate mean"
MRTFA,0.11,7039
RASSF4,0.82,4142
AP2M1,-0.72,5122
TM7SF2,0.9,5854
PTGIR,0.64,4944
ZNF493,1.43,6614
ESS2,-0.18,3426
ADRA2A,0.06,5708
FBXO3,-0.62,5948
SPG11,1.2,5102
UGP2,-0.7,5834
ARHGAP10,0.42,5784
EARS2,1.29,5665
AMPD1,0.52,6788
SPATA22,-1.74,6170
DMAC2L,0.66,5610
GGPS1,0.05,7499
SLC22A9,-0.44,5620
ZC3H7B,0.58,4710
ADGRD2,-0.26,4931
GPX6,0.03,5806
PCDHGC5,-0.13,4944
GUCY1A1,-1.32,5104
